Results deposited as PubChem BioAssay AID743454 (Peter MacCallum Cancer Centre, 2014)
This is one part, drawn at random, of about 18,000 reagents. Over the whole deposit, 450 (2.5%) were called active. 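Single biological run; no consistent viability z cut-off exists, so the class columns, not z-scores, define the calls.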 A number with no mark means an inactive call.

- Assay: 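Genes whose loss kills vorinostat-resistant colon cancer cells under vorinostat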 (primary screen)
- Cells: human HCT116-VR colon cancer cells, selected for vorinostat resistance
- Reagent: siRNA pool against human genes, 40 nM siRNA pool
- Time to read-out: vorinostat for 24 h, read-out about 72 h after transfection
- Conditions: vorinostat at 2.5 µM final
- Detection: 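Two measures, CellTiter-Fluor viability and luminescent caspase 3/7 activity, each as fold change against same-plate mock wells, mean of duplicates, then screen-wide robust z-score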
- Direction: viability robust z-score: higher = more viable cells than screen typical; caspase robust z-score: higher = more caspase 3/7 activity than screen typical
- Active means: 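Hits are knock-downs in viability class RV1/RV2 or caspase class CA1/CA2, excluding ones that killed cells in the no-drug cell-count arm; hits then retested with single siRNAs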

gene symbol | viability hit class | caspase hit class | viability robust z-score | caspase robust z-score
TACR1 (GeneID 6869) | no change | no change | -1.37 | -0.23
PPP1R1C (GeneID 151242) | no change | no change | -1.18 | 0.16
SCNN1G (GeneID 6340) | no change | no change | 0.07 | -0.11
SPATA21 (GeneID 374955) | no change | no change | 0.88 | 1.35
PAX9 (GeneID 5083) | no change | no change | -2.75 | -0.64
ZNF280B (GeneID 140883) | no change | no change | -0.43 | -0.94
WBP2 (GeneID 23558) | no change | no change | -0.21 | 0.93
UBE2R2 (GeneID 54926) | no change | no change | -0.09 | 2.72
OSGEPL1 (GeneID 64172) | no change | no change | -0.25 | 0.25
GSK3A (GeneID 2931) | no change | no change | -0.32 | -0.45
DIRAS3 (GeneID 9077) | no change | no change | -1.12 | -0.51
WFDC9 (GeneID 259240) | no change | no change | -0.06 | 0.18
KLK9 (GeneID 284366) | no change | no change | -0.28 | -0.86
SLC10A7 (GeneID 84068) | no change | no change | 0.03 | -0.26
NDUFA6 (GeneID 4700) | no change | no change | -2.84 | 0.72
C12orf42 (GeneID 374470) | no change | no change | 0.76 | -0.18
CDRT15P3 (GeneID 408029) | no change | no change | -2.85 | 0.96
ABCA4 (GeneID 24) | no change | no change | -0.38 | 0.14
DBP (GeneID 1628) | no change | no change | 0.27 | 0.02
PHLDA1 (GeneID 22822) | no change | no change | 0.55 | 1.69
FAM111B (GeneID 374393) | no change | no change | -0.35 | 1.12
BCO2 (GeneID 83875) | no change | no change | 0.18 | 1.62

Part of the list above, reduced to “caspase hit class”.
GSK3A (GeneID 2931) = no change
DIRAS3 (GeneID 9077) = no change
WFDC9 (GeneID 259240) = no change
KLK9 (GeneID 284366) = no change
SLC10A7 (GeneID 84068) = no change
NDUFA6 (GeneID 4700) = no change
C12orf42 (GeneID 374470) = no change

Next results:
gene symbol | viability hit class | caspase hit class | viability robust z-score | caspase robust z-score
H2BC21 (GeneID 8349) | no change | no change | -0.36 | -0.74
WDR62 (GeneID 284403) | no change | no change | -0.35 | 0.44
SAT2 (GeneID 112483) | no change | no change | 1.21 | -1.02
SLCO3A1 (GeneID 28232) | no change | no change | -0.3 | 1.72
NDUFAF5 (GeneID 79133) | no change | no change | 0.2 | -0.85
PROX1 (GeneID 5629) | no change | no change | 0.33 | 2.68
TJP3 (GeneID 27134) | no change | no change | 0.54 | -1.02
LRRC23 (GeneID 10233) | no change | no change | -0.94 | -0.54
MRPL17 (GeneID 63875) | no change | no change | -0.13 | 2.39
POU2F1 (GeneID 5451) | no change | no change | 1.33 | -0.94
FAM131A (GeneID 131408) | no change | no change | 1.6 | 0.34
ROMO1 (GeneID 140823) | no change | no change | -1.47 | -0.89
RP2 (GeneID 6102) | no change | no change | -0.63 | -0.38
MYO1B (GeneID 4430) | no change | no change | 0.22 | 0.41
NKX2-3 (GeneID 159296) | no change | no change | -0.2 | -0.52
MYRF (GeneID 745) | no change | no change | 0.26 | -0.22
HBZ (GeneID 3050) | no change | no change | -0.1 | -0.18
CTDSP1 (GeneID 58190) | no change | no change | -0.26 | 3.65
HOXB7 (GeneID 3217) | no change | no change | -0.05 | -0.54
ZBTB37 (GeneID 84614) | no change | no change | -0.06 | -0.45
PSKH1 (GeneID 5681) | no change | no change | 0.38 | -0.64
CCSER1 (GeneID 401145) | no change | no change | 0.4 | 0.32
ZNF213 (GeneID 7760) | no change | no change | 0.06 | 0.7
ZNF614 (GeneID 80110) | no change | no change | 0.46 | -0.74
PSMB4 (GeneID 5692) | no change | no change | -4.45 | 1.18
TCF19 (GeneID 6941) | no change | no change | 1.93 | 0.41
SERPINB2 (GeneID 5055) | no change | no change | 0.03 | 0.59
NEK3 (GeneID 4752) | no change | no change | -1.46 | 0.99
NALF1 (GeneID 728215) | no change | no change | 0.45 | -0.46
PGP (GeneID 283871) | no change | no change | 0.41 | -0.25
ORAI3 (GeneID 93129) | no change | no change | 0.57 | 1.52
OR2B3 (GeneID 442184) | no change | no change | 0.43 | -0.24
CDRT4 (GeneID 284040) | no change | no change | -0.88 | 0.8
C1orf50 (GeneID 79078) | no change | no change | -0.24 | 0.44
TREM1 (GeneID 54210) | no change | no change | -1 | 1.29
